Screen size: about 390,000 compounds; about 610 (0.16%) were called active. This list was built around the results that the source calls inconclusive (neither active nor inactive); the mix of calls is not that of the screen. The call rests on the fitted dose curve; in most records, active means well fitted inhibition curve with a large enough effect; inconclusive means small, poorly fitted or top-dose-only effect, or effect the other way, or another doubt; inactive means no such curve, though single readings can be large or run the other way. A potency beside an inconclusive call is a rough fit, not a confirmed value.
Experiment: Nrf2 qHTS screen for inhibitors: counterscreen for cytotoxicity
Conditions: A549 ARE-Fluc cells, CellTiter-Fluor viability, 18-24 h; series mostly up to 46 µM
How it was run: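 Cytotoxicity counterscreen: CellTiter-Fluor fluorescence was measured in A549 ARE_Fluc cells after 18-24 h of compound exposure in a concentration series. The subsequent BugLite luminescent read reports ARE-luciferase activity.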
Potency means the concentration at half of the fitted maximal effect.

Q: For `CCC(C(=O)Nc1cc(Cl)ccc1OC)c1ccccc1` (configuration not stated), which Potency is on record?
A: inconclusive: 29.1 µM [activator, single point]

Q: Which Potency does the source give for `COc1ccc(Nc2cc(C(=O)NCCCN3CCN(c4ccc(OC)cc4)CC3)c3ccccc3n2)cc1` here?
A: inconclusive: 18.4 µM [falling, partial curve, poor fit]

Q: For `Cc1ccc(NC(=S)NC2CC3CCCC(C2)N3Cc2cccs2)cc1` (configuration not stated), which Potency is on record?
A: inconclusive: 29.1 µM [falling, single point]

Q: For `Cc1ccc(S(=O)(=O)c2ccc([N+](=O)[O-])o2)cc1`, which Potency is on record?
A: inconclusive: 20.6 µM [falling, single point]

Q: Which Potency does the source give for `N#Cc1c(-c2cccnc2)c2c([nH]c1=O)-c1ccccc1OC2` here?
A: inconclusive: 18.4 µM [activator, single point]

Q: Which Potency does the source give for `COc1cc2c(cc1OC)C(COc1ccccc1OC)N(C(=O)COc1ccc(Cl)cc1)CC2` (configuration not stated) here?
A: inactive

Q: With `N#Cc1ccccc1S(=O)(=O)N1CCN(C(=O)CCC2CCCC2)CC1` as the molecule, how does the Potency read?
A: inconclusive: 0.0164 µM [activator, full curve, poor fit]

Q: Which Potency does the source give for `Cc1ccc2oc(-c3cccc(NC(=O)c4cc(-n5cnnc5)ccc4Cl)c3)nc2c1` here?
A: inconclusive: 10.3 µM [falling, single point]

Q: Which Potency does the source give for `COc1ccccc1CN1CCCC(CN(CCN(C)C)C(=O)c2ccc(C)cc2)C1` (configuration not stated) here?
A: inconclusive: 9.2 µM [falling, partial curve]

Q: Which Potency does the source give for `COc1ccc(NC(=O)CN(Cc2ccccc2)Cc2ccccc2)cc1S(N)(=O)=O` here?
A: inconclusive: 4.61 µM [falling, partial curve, poor fit]

Q: Which Potency does the source give for `CCCCn1c(SC(C)C(=O)c2ccc(OC)cc2)nc2cc(S(N)(=O)=O)ccc21` (configuration not stated) here?
A: inconclusive: 18.4 µM [falling, single point]

Q: With `COc1cc2ccccc2cc1C(=O)NC1CCCCC1` as the molecule, how does the Potency read?
A: inconclusive: 20.6 µM [activator, partial curve, poor fit]

Q: Which Potency does the source give for `CCCc1nc2c(=O)n(C)c(=O)nc-2n(C)n1` here?
A: active: 6.51 µM

Q: With `Cc1cc(=O)n2c3c(c4c(cc13)c(CN(C)C)cc(=O)n4C)OC2` as the molecule, how does the Potency read?
A: inconclusive: 18.4 µM [falling, single point]

Q: With `COC(=O)c1cccnc1-n1c(=O)c2cccnc2n(CC(=O)Nc2ccccc2F)c1=O` as the molecule, how does the Potency read?
A: inconclusive: 32.6 µM [falling, partial curve, poor fit]

Q: Which Potency does the source give for `O=[N+]([O-])c1cccc(N=Nc2ccc(O)cc2O)c1` here?
A: inconclusive: 14.6 µM [falling, single point]

Q: With `Clc1cccc(-n2ncc3c(N4CCC(Cc5ccccc5)CC4)ncnc32)c1` as the molecule, how does the Potency read?
A: inconclusive: 3.66 µM [activator, full curve, poor fit]

Q: With `Cc1ccc(N(CC(O)CN2CCOCC2)S(=O)(=O)c2ccc([N+](=O)[O-])cc2)cc1` (configuration not stated) as the molecule, how does the Potency read?
A: inconclusive: 1.3 µM [activator, partial curve, poor fit]

Q: Which Potency does the source give for `CCOCCCNc1nc2nc3ccc(C)cn3c(=O)c2cc1C(=O)NCC1CCCO1` (configuration not stated) here?
A: inconclusive: 8.2 µM [activator, partial curve, poor fit]

Q: For `Cc1ccc2nc(-c3ccc(SCC(=O)Nc4nnc(C)s4)nc3)[nH]c2c1`, which Potency is on record?
A: inconclusive: 29.1 µM [falling, single point]

Q: For `CC(C)c1nc(N2CCN(C(=O)c3ccco3)CC2)c(C#N)c2c1COC(C)(C)C2`, which Potency is on record?
A: inactive

Q: For `O=C(Nc1cccc(NC(=O)c2cccs2)c1)c1ccc2c(c1)OCO2`, which Potency is on record?
A: inconclusive: 20.6 µM [falling, partial curve, poor fit]

Q: For `CC1(C)Cc2ccccc2C(N/N=C/c2ccc(Cl)cc2)=N1`, which Potency is on record?
A: inactive

Q: For `Cc1ccc(S(=O)(=O)N2CCCCC2)cc1NC(=O)CNC(C)c1ccc(Cl)c(Cl)c1` (configuration not stated), which Potency is on record?
A: inconclusive: 32.6 µM [falling, partial curve, poor fit]

Q: With `CCCN1C(=O)c2[nH]nc(-c3ccccc3O)c2C1c1ccc(OCc2ccccc2)c(OC)c1` (configuration not stated) as the molecule, how does the Potency read?
A: inconclusive: 29.1 µM [falling, partial curve, poor fit]

Q: With `OCCN1CCN(CC/C=C2/c3ccccc3Sc3ccc(C(F)(F)F)cc32)CC1` as the molecule, how does the Potency read?
A: inactive

Q: Which Potency does the source give for `COc1ccccc1N1C(=O)c2cccc3c(N(C)CCO)ccc(c23)C1=O` here?
A: inconclusive: 25.9 µM [falling, partial curve, poor fit]

Q: Which Potency does the source give for `COc1cc2c(oc(=O)c3cc(C)cc(OC)c32)c2c(C3OC(C)C(O)C(C)(O)C3O)ccc(O)c12` (configuration not stated) here?
A: active: 5.8 µM

Q: Which Potency does the source give for `Cc1ccc(-n2ccc(=O)c(-c3ccnc(SCc4cccc(Cl)c4)n3)n2)cc1` here?
A: inconclusive: 16.4 µM [falling, partial curve]

Q: Which Potency does the source give for `Cc1ccc2nc(N(CCCN(C)C)C(=O)c3ccc(S(=O)(=O)N4CCc5ccccc5C4)cc3)sc2c1` here?
A: inconclusive: 29.1 µM [falling, single point]

Q: Which Potency does the source give for `O=C(/C=C/c1cccc([N+](=O)[O-])c1)Nc1ccc(NC(=O)c2cccs2)cc1` here?
A: inactive

Q: Which Potency does the source give for `Cc1csc(C(C)N(C)C(=O)c2ccc(OC3CCN(Cc4ccccn4)CC3)cc2)n1` (configuration not stated) here?
A: inconclusive: 23.1 µM [falling, partial curve, poor fit]

Q: For `COC(=O)/C(=C\c1ccc(O)cc1)c1nc2ccccc2[nH]1`, which Potency is on record?
A: inactive

Q: For `O=C(CC1(O)C(=O)Nc2cc(Cl)cc(Cl)c21)c1ccccc1O` (configuration not stated), which Potency is on record?
A: inactive

Q: For `CCN(CC)CCC(=O)Nc1ccc2c(c1)N(C(=O)CN(CC)CC)c1ccccc1CC2`, which Potency is on record?
A: inconclusive: 25.9 µM [falling, single point]

Q: Which Potency does the source give for `Cc1nc(-c2cccc(NC(=O)Nc3ccc([N+](=O)[O-])cc3)c2)no1` here?
A: inconclusive: 25.9 µM [falling, partial curve, poor fit]

Q: With `O=c1c(-c2ccco2)[n+]([O-])c2ccccc2n1OCc1ccccc1F` as the molecule, how does the Potency read?
A: inconclusive: 9.2 µM [falling, partial curve, poor fit]

From PubChem BioAssay AID504648 (National Center for Advancing Translational Sciences (NCATS), 2011)
